PubChem BioAssay AID1259405 | NCATS, 2018

- Assay: 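Knock-downs that lift recombinant protein yield in hamster ovary cells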 (primary screen)
- System: Chinese hamster CHO-K1 ovary cells with stable secreted eGFP expression
- Knock-down reagent: single siRNA against mouse genes, 0.8 pmol siRNA per well (2 µl of 400 nM stock)
- Timing: 3 days
- Detection: 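Percent of the per-plate non-targeting control median for intracellular GFP per well by laser scanning cytometry and for cell viability by ATP luminescence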
- Reading the numbers: GFP, % of control: higher = more GFP per well, higher productivity; viability (ATP), % of control: higher = more viable cells (more ATP)
- Hit rule: 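a knock-down is called active if GFP reaches 120% or more of non-targeting control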
Here is a random part of about 50,000 reagents tested. About 4,000 of them (8%) were called active. 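Mouse siRNA library applied to hamster cells; one well for each siRNA.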 Reagents against one gene are numbered here.

| GFP, % of control | viability (ATP), % of control | activity call | gene knocked down | reagent |
| --- | --- | --- | --- | --- |
| 106 | 99.9 | inactive | Rbfox3 | 1 |
| 80.6 | 93.1 | inactive | Rbfox3 | 2 |
| 40.9 | 61.4 | inactive | Rbfox3 | 3 |
| 130 | 91.1 | active | Nrbf2 | 1 |
| 71.7 | 92 | inactive | Nrbf2 | 2 |
| 86.4 | 107 | inactive | Nrbf2 | 3 |
| 107 | 111 | inactive | Ptpn14 | 1 |
| 115 | 84.7 | inactive | Ptpn14 | 2 |
| 90.8 | 83.5 | inactive | Ptpn14 | 3 |
| 32.1 | 30.4 | inactive | Or9i1 | 1 |
| 74.4 | 96.5 | inactive | Or9i1 | 2 |
| 44.2 | 63.2 | inactive | Or9i1 | 3 |
| 76 | 69.6 | inactive | A130014H13Rik | 1 |
| 53 | 47.7 | inactive | A130014H13Rik | 2 |
| 79.3 | 91.3 | inactive | A130014H13Rik | 3 |
| 86.4 | 92.2 | inactive | Tent4a | 1 |
| 80 | 51.4 | inactive | Tent4a | 2 |
| 113 | 89.3 | inactive | Tfe3 | 1 |
| 76.1 | 76.8 | inactive | Tfe3 | 2 |
| 65.5 | 89.3 | inactive | Tfe3 | 3 |
| 55.2 | 45.1 | inactive | Lpar3 | 1 |
| 65.6 | 37.3 | inactive | Lpar3 | 2 |
| 98.8 | 50.5 | inactive | Lpar3 | 3 |
| 72.5 | 72.6 | inactive | Sbk1 | 1 |
| 89.5 | 73.5 | inactive | Sbk1 | 2 |
| 88.4 | 87.1 | inactive | Sbk1 | 3 |
| 79.5 | 82.2 | inactive | A730045E13Rik | 1 |
| 50.2 | 36.8 | inactive | A730045E13Rik | 2 |
| 65.4 | 84.2 | inactive | A730045E13Rik | 3 |
| 117 | 51 | inactive | Ccdc85b | 1 |
| 104 | 81.7 | inactive | Ccdc85b | 2 |
| 82.8 | 71.6 | inactive | Ccdc85b | 3 |
| 65.3 | 86.4 | inactive | Ufl1 | 1 |
| 4.95 | 4.96 | inactive | Ufl1 | 2 |
| 45.2 | 57.8 | inactive | Ufl1 | 3 |
| 125 | 80.4 | active | Adgrg6 | 1 |
| 104 | 93.2 | inactive | Adgrg6 | 2 |
| 185 | 107 | active | Adgrg6 | 3 |
| 57.7 | 87.3 | inactive | Mtfr1 | 1 |
| 50.5 | 58.4 | inactive | Mtfr1 | 2 |
| 82.2 | 84.7 | inactive | Mtfr1 | 3 |
| 80.3 | 79.6 | inactive | Yipf2 | 1 |
| 65.1 | 63.7 | inactive | Yipf2 | 2 |
| 92.9 | 54.6 | inactive | Yipf2 | 3 |
| 48.9 | 37.3 | inactive | Ptpn11 | 1 |
| 88.4 | 77.6 | inactive | Ptpn11 | 2 |
| 66.7 | 77.7 | inactive | Ptpn11 | 3 |
| 47.6 | 43.9 | inactive | Necab2 | 1 |
| 60.5 | 73.2 | inactive | Necab2 | 2 |
| 124 | 89.2 | active | Mrfap1 | 1 |
| 57.9 | 76.1 | inactive | Mrfap1 | 2 |
| 115 | 101 | inactive | Mrfap1 | 3 |
| 57.8 | 80.5 | inactive | Med30 | 1 |
| 78.1 | 73.8 | inactive | Med30 | 2 |
| 65.4 | 56.8 | inactive | Med30 | 3 |
| 137 | 75.1 | active | Zfp790 | 1 |
| 105 | 91.4 | inactive | Zfp790 | 2 |
| 83.1 | 92.8 | inactive | Zfp790 | 3 |
| 101 | 70.5 | inactive | Frem1 | 1 |
| 59.7 | 88.2 | inactive | Frem1 | 2 |
| 112 | 85.5 | inactive | Frem1 | 3 |
| 78.7 | 68.1 | inactive | Stpg1 | 1 |
| 77.8 | 46.9 | inactive | Stpg1 | 2 |
| 51.3 | 58.7 | inactive | Stpg1 | 3 |
| 49.8 | 48.7 | inactive | Or2r3 | 1 |
| 89.7 | 86.5 | inactive | Or2r3 | 2 |
| 34.9 | 28.8 | inactive | Or2r3 | 3 |
| 63.7 | 71.9 | inactive | Smim8 | 1 |
| 30.9 | 34 | inactive | Smim8 | 2 |
| 78.7 | 80.4 | inactive | Smim8 | 3 |
| 92.7 | 59.7 | inactive | Camk1 | 1 |
| 66.6 | 74.9 | inactive | Zfp438 | 1 |
| 74.2 | 59.7 | inactive | Zfp438 | 2 |
| 69.2 | 65.3 | inactive | Adcy4 | 1 |
| 59.5 | 77.2 | inactive | Adcy4 | 2 |
| 33.7 | 26.7 | inactive | Adcy4 | 3 |
| 89.2 | 94.2 | inactive | Coa3 | 1 |
| 69.5 | 64.3 | inactive | Coa3 | 2 |
| 106 | 135 | inactive | Coa3 | 3 |
| 77.8 | 99.3 | inactive | Cxcl12 | 1 |
| 33.2 | 48.8 | inactive | Cxcl12 | 2 |
| 118 | 100 | inactive | Cxcl12 | 3 |
| 79.5 | 53.3 | inactive | Rnf41 | 1 |
| 59.9 | 67.1 | inactive | Rnf41 | 2 |
| 34.9 | 68.1 | inactive | Rnf41 | 3 |
